Results are given in words; binding and its absence hold for the method and conditions named. Some entries that bind do so weakly or less than the wild type.

Assay [1] addresses T1, GcdC1, biotin carrier subunit of glutaconyl-CoA decarboxylase (Gcd) from Clostridium symbiosum (Clostridium symbiosum (endogenous in C. symbiosum DSM 934)) (UniProt B7TVP4).
T1 sequence (chain, biotin covalently bound (C-terminal region)): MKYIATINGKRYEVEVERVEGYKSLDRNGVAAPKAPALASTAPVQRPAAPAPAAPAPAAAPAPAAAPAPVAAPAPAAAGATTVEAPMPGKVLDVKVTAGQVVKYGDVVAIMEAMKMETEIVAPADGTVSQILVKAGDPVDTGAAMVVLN
As to the kind of experiment: native MS; LILBID-MS, soft detection mode (14 mJ laser power); 3-7 uM glutaraldehyde-fixed and unconcentrated Gcd complex in 50 mM Tris-HCl pH 7.0, 0.05% DDM, 200 mM NaCl; both purified.

Assay [2] deals with T2, GcdC2, biotin carrier subunit of glutaconyl-CoA decarboxylase (Gcd) from Clostridium symbiosum (Clostridium symbiosum (endogenous in C. symbiosum DSM 934)) (UniProt B7TVP3).
T2 sequence (chain, biotin covalently bound (C-terminal region)): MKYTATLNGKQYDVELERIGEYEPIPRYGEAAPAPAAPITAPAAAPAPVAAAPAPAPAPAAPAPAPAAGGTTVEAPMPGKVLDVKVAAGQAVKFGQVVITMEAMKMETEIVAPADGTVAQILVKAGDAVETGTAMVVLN
The description is as above.

B1: GcdB, subunit of glutaconyl-CoA decarboxylase (Gcd) from Clostridium symbiosum (enzyme, UniProt B7TVP5 1-379, looked up)
chain: MNFFEIMGEMLAQSGFTALTWKNLVMFAISFVLLYMAIKKQYEPLLLLPIAFGMFLANLPLADLMKESEPWYTQGVLRIMYGGVKSSLFPCLIFLCVGAMTDFGPLIANPISLLLGAAAQFGIYIAFMLANATGLFTVGEAAAIGIIGGADGPTAIYIANNLAPDLVAPIAVAAYSYMALIPMIQPPIMKLLTTKKERAIVMKQLRKVSKVEKVVFPVFVVLFCSLLLPSVAPLLGMLMLGNLFRESGVVERLSDTAQNALCNIVTIMLGTTVGATANGDIFLRVQTIAIIAMGLMAFCFSTVGGVLLGKLLCVVTGGKINPLIGSAGVSAVPMAARVSQTVGSKENPTNFLLMHAMGPNVAGVIGSAVAAGFFMLIFK
notes: GcdB, membrane-spanning subunit (11 putative transmembrane helices) of glutaconyl-CoA decarboxylase, Clostridium symbiosum, 35 kDa (39 kDa in the introduction)
Turning to B1, the binding result in assay [1] and in assay [2] was “binds” throughout.

The record behind these values is article PMC7145394, “Molecular and Low-Resolution Structural Characterization of the Na^+-Translocating Glutaconyl-CoA Decarboxylase From Clostridium symbiosum” (Frontiers in Microbiology, 2020).
